Results are given in words; binding and its absence hold for the method and conditions named. Binding seen in cells or lysates may run through a third protein. Here binding means that the protein was enriched with, or labelled near, the bait; the list need not be complete.
Biological target: WDR45 (UniProt Q9Y484)
Test: affinity purification with mass spectrometry

Protein sequences, listed by entry. Tags and fused reporters are not part of them.
UniProt Q9Y484: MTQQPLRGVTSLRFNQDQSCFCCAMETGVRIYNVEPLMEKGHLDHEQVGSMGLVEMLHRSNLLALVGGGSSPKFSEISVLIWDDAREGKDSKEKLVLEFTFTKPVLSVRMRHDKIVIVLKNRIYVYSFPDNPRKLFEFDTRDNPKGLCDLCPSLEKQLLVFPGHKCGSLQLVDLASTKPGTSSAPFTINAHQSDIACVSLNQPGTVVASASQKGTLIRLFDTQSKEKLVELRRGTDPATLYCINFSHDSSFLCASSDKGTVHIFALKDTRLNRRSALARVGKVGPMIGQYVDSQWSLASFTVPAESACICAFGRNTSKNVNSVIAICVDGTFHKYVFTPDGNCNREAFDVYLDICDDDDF
UniProt Q96BY7: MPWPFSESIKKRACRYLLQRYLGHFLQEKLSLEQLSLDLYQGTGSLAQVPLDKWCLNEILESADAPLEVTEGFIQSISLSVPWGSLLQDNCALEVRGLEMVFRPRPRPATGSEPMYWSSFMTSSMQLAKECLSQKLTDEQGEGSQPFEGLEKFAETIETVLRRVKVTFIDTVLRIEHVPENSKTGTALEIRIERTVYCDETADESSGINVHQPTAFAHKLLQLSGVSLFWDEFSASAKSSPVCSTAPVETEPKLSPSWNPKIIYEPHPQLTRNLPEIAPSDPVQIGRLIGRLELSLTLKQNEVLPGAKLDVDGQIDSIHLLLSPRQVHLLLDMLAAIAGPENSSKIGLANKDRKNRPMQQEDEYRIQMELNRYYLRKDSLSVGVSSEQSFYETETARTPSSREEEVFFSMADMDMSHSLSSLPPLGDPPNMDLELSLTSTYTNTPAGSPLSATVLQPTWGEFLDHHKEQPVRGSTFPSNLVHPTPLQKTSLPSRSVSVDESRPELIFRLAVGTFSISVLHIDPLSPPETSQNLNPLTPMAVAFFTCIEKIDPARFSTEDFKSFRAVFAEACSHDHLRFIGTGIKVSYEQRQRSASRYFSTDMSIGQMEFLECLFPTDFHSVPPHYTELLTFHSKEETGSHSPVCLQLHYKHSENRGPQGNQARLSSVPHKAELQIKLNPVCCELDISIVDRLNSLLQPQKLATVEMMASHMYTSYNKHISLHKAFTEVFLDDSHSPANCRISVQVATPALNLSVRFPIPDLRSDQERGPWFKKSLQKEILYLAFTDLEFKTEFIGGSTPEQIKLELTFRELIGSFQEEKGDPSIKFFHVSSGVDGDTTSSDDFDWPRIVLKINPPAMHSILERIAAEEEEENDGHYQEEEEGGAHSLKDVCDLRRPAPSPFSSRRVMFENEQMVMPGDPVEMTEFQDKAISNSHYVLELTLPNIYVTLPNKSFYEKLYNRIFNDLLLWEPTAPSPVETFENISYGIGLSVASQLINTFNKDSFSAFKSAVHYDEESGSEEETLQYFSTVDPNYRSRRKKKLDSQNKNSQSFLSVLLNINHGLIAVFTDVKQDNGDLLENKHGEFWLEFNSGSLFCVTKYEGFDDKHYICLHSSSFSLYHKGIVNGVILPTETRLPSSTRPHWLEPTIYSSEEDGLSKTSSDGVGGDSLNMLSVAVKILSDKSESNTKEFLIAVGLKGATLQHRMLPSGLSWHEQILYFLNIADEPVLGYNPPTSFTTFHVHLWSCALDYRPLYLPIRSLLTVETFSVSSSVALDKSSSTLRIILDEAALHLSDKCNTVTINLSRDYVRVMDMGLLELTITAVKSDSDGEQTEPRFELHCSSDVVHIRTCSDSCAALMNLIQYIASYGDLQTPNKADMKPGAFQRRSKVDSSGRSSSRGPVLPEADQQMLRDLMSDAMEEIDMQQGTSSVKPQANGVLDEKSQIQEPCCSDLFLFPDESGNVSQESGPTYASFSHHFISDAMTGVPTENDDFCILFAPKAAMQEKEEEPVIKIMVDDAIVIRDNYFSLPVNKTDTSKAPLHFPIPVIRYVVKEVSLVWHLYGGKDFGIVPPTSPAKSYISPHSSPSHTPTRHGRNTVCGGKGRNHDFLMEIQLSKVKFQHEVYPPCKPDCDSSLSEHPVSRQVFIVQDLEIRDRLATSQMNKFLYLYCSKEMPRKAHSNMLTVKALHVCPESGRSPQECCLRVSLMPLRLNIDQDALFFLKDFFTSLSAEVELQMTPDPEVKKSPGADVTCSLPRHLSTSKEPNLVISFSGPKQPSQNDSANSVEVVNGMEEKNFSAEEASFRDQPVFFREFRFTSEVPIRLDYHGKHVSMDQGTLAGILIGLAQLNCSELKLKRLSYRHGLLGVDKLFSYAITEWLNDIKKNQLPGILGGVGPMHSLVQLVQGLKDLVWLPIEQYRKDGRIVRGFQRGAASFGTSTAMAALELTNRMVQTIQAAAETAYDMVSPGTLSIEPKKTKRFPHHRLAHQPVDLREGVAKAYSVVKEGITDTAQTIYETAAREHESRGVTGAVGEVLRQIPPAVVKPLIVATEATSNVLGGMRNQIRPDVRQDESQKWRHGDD

Substance: ATG2B (from UniProt Q96BY7 1-2078)
- binding: binds
